We go through three molecules from paper PMC5440412.

No constants are given. Whether binding was seen depends on the method and setting. In cells and extracts the contact can be indirect. A yes stands for co-enrichment or nearness to the bait. Other partners may have been found.

The target in the assay is Leucocyte surface antigen, CD47 (human (endogenous in K562 cells, erythroblasts and erythrocytes)). Kind of assay: affinity purification with mass spectrometry; total CD47 immunoprecipitated with BRIC126 on protein G beads from 1% NP-40 lysates of up to 15 million K562 cells, expanding (EXP) and T0 erythroblasts and mature erythrocytes; IgG isotype control; hits absent from or more than 2-fold over the IgG control; Nano LC-MS/MS.

B1: EF hand containing protein D2 (protein, UniProt Q96C19 1-240)
chain: MATDELATKLSRRLQMEGEGGGETPEQPGLNGAAAAAAGAPDEAAEALGSADCELSAKLLRRADLNQGIGEPQSPSRRVFNPYTEFKEFSRKQIKDMEKMFKQYDAGRDGFIDLMELKLMMEKLGAPQTHLGLKNMIKEVDEDFDSKLSFREFLLIFRKAAAGELQEDSGLCVLARLSEIDVSSEGVKGAKSFFEAKVQAINVSSRFEEEIKAEQEERKKQAEEMKQRKAAFKELQSTFK
On to B1, for which the binding entry is reported as “binds”.

B2: Tropomodulin-3 (protein, UniProt Q9NYL9 1-352)
chain: MALPFRKDLEKYKDLDEDELLGNLSETELKQLETVLDDLDPENALLPAGFRQKNQTSKSTTGPFDREHLLSYLEKEALEHKDREDYVPYTGEKKGKIFIPKQKPVQTFTEEKVSLDPELEEALTSASDTELCDLAAILGMHNLITNTKFCNIMGSSNGVDQEHFSNVVKGEKILPVFDEPPNPTNVEESLKRTKENDAHLVEVNLNNIKNIPIPTLKDFAKALETNTHVKCFSLAATRSNDPVATAFAEMLKVNKTLKSLNVESNFITGVGILALIDALRDNETLAELKIDNQRQQLGTAVELEMAKMLEENTNILKFGYQFTQQGPRTRAANAITKNNDLVRKRRVEGDHQ
With B2, the binding result was “binds”.

B3: Myosin-Id (protein, UniProt O94832 1-1006)
chain: MAEQESLEFGKADFVLMDTVSMPEFMANLRLRFEKGRIYTFIGEVVVSVNPYKLLNIYGRDTIEQYKGRELYERPPHLFAIADAAYKAMKRRSKDTCIVISGESGAGKTEASKYIMQYIAAITNPSQRAEVERVKNMLLKSNCVLEAFGNAKTNRNDNSSRFGKYMDINFDFKGDPIGGHINNYLLEKSRVIVQQPGERSFHSFYQLLQGGSEQMLRSLHLQKSLSSYNYIHVGAQLKSSINDAAEFRVVADAMKVIGFKPEEIQTVYKILAAILHLGNLKFVVDGDTPLIENGKVVSIIAELLSTKTDMVEKALLYRTVATGRDIIDKQHTEQEASYGRDAFAKAIYERLFCWIVTRINDIIEVKNYDTTIHGKNTVIGVLDIYGFEIFDNNSFEQFCINYCNEKLQQLFIQLVLKQEQEEYQREGIPWKHIDYFNNQIIVDLVEQQHKGIIAILDDACMNVGKVTDEMFLEALNSKLGKHAHFSSRKLCASDKILEFDRDFRIRHYAGDVVYSVIGFIDKNKDTLFQDFKRLMYNSSNPVLKNMWPEGKLSITEVTKRPLTAATLFKNSMIALVDNLASKEPYYVRCIKPNDKKSPQIFDDERCRHQVEYLGLLENVRVRRAGFAFRQTYEKFLHRYKMISEFTWPNHDLPSDKEAVKKLIERCGFQDDVAYGKTKIFIRTPRTLFTLEELRAQMLIRIVLFLQKVWRGTLARMRYKRTKAALTIIRYYRRYKVKSYIHEVARRFHGVKTMRDYGKHVKWPSPPKVLRRFEEALQTIFNRWRASQLIKSIPASDLPQVRAKVAAVEMLKGQRADLGLQRAWEGNYLASKPDTPQTSGTFVPVANELKRKDKYMNVLFSCHVRKVNRFSKVEDRAIFVTDRHLYKMDPTKQYKVMKTIPLYNLTGLSVSNGKDQLVVFHTKDNKDLIVCLFSKQPTHESRIGELVGVLVNHFKSEKRHLQVNVTNPVQCSLHGKKCTVSVETRLNQPQPDFTKNRSGFILSVPGN
With B3, the binding entry is recorded as “binds”.
